Results are given in words; binding and its absence hold for the method and conditions named. Binding seen in cells or lysates may run through a third protein. These calls come from enrichment with a bait or labelling near it, and not all partners need be listed.
B1: Rab11 family-interacting protein 5 (FIP5) (protein, UniProt Q9BXF6 1-653)
chain: MALVRGAEPAAGPSRWLPTHVQVTVLRARGLRGKSSGAGSTSDAYTVIQVGREKYSTSVVEKTHGCPEWREECSFELPPGALDGLLRAQEADAGPAPWAASSAAACELVLTTMHRSLIGVDKFLGQATVALDEVFGAGRAQHTQWYKLHSKPGKKEKERGEIEVTIQFTRNNLSASMFDLSMKDKPRSPFSKIRDKMKGKKKYDLESASAILPSSAIEDPDLGSLGKMGKAKGFFLRNKLRKSSLTQSNTSLGSDSTLSSASGSLAYQGPGAELLTRSPSRSSWLSTEGGRDSAQSPKLFTHKRTYSDEANQMRVAPPRALLDLQGHLDAASRSSLCVNGSHIYNEEPQGPVRHRSSISGSLPSSGSLQAVSSRFSEEGPRSTDDTWPRGSRSNSSSEAVLGQEELSAQAKVLAPGASHPGEEEGARLPEGKPVQVATPIVASSEAVAEKEGARKEERKPRMGLFHHHHQGLSRSELGRRSSLGEKGGPILGASPHHSSSGEEKAKSSWFGLREAKDPTQKPSPHPVKPLSAAPVEGSPDRKQSRSSLSIALSSGLEKLKTVTSGSIQPVTQAPQAGQMVDTKRLKDSAVLDQSAKYYHLTHDELISLLLQRERELSQRDEHVQELESYIDRLLVRIMETSPTLLQIPPGPPK
B2: ARHGAP1, a Rho GTPase-activating protein (protein, UniProt Q07960 1-439)
chain: MDPLSELQDDLTLDDTSEALNQLKLASIDEKNWPSDEMPDFPKSDDSKSSSPELVTHLKWDDPYYDIARHQIVEVAGDDKYGRKIIVFSACRMPPSHQLDHSKLLGYLKHTLDQYVESDYTLLYLHHGLTSDNKPSLSWLRDAYREFDRKYKKNIKALYIVHPTMFIKTLLILFKPLISFKFGQKIFYVNYLSELSEHVKLEQLGIPRQVLKYDDFLKSTQKSPATAPKPMPPRPPLPNQQFGVSLQHLQEKNPEQEPIPIVLRETVAYLQAHALTTEGIFRRSANTQVVREVQQKYNMGLPVDFDQYNELHLPAVILKTFLRELPEPLLTFDLYPHVVGFLNIDESQRVPATLQVLQTLPEENYQVLRFLTAFLVQISAHSDQNKMTNTNLAVVFGPNLLWAKDAAITLKAINPINTFTKFLLDHQGELFPSPDPSGL

Sequences of proteins named here, by UniProt entry; tags and fusion partners are left off. A change or cut given only in a name is not applied to a line headed by its entry.
UniProt P62491: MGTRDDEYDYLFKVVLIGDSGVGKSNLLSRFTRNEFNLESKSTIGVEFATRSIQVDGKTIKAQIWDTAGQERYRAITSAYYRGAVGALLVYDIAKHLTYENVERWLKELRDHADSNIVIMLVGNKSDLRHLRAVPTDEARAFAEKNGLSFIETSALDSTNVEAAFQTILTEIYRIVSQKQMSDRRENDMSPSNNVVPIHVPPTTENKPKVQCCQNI
UniProt Q7L804: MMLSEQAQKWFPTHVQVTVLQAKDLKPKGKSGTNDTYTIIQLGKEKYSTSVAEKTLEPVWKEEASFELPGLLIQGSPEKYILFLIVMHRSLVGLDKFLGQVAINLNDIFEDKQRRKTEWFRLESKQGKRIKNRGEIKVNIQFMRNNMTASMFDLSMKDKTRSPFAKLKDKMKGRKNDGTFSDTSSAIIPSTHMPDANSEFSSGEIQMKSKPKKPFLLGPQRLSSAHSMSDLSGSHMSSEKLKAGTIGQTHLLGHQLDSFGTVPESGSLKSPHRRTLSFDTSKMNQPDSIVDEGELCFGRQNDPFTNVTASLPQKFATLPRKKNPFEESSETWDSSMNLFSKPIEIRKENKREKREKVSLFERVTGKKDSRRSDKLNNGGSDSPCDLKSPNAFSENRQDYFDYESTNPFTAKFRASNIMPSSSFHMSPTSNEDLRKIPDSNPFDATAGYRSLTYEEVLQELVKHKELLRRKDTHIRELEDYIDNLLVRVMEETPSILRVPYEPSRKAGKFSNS

These molecules were tested against myc-tagged R118G-mutated BirA (BirA*)-fused Rab11a (UniProt P62491) (assay: proximity labelling).

binding	Molecule
binds	Rab11 family-interacting protein 2 (FIP2) (from UniProt Q7L804 1-512)
binds	B1
binds	B2

From article PMC9239208
